Experimental data: PubChem BioAssay AID686937 (Drosophila RNAi Screening Center, 2013)

Purpose: 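Knock-downs that reduce output of a secreted reporter enzyme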 (primary screen)
Cells: Drosophila S2 cells expressing secreted horseradish peroxidase
Reagents: long dsRNA against Drosophila genes
Time to read-out: about 5.5 days (5 days dsRNA, then 12 h reporter induction)
Treatment: reporter expression induced after 5 days of dsRNA, read 12 h later; inducer not stated
Read-out: 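After 5 days of dsRNA and 12 h of reporter induction, medium peroxidase read by chemiluminescence and scored as per-plate z-score; higher values mean more reporter released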
Scale: z-score: higher = more reporter secreted into medium
The deposit covers about 23,000 reagents; shown is a random part of those with a known target gene and a result. 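Reduced-secretion tags in replicate 1 do not always agree with the z-scores; no criterion for assigning the tags was given.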 Not all columns of the deposit are shown. Not given: the amount of reagent.

GCC185 [SID104195285]
- z-score, replicate 1: 0.05

Cks30A [SID104183084]
- z-score, replicate 1: 0.31

CG30015 [SID104185033]
- z-score, replicate 1: 0.72

CG30015 [SID104186819]
- z-score, replicate 1: -1.49

CG30015 [SID104186820]
- z-score, replicate 1: 0.22

fidipidine [SID104187410]
- z-score, replicate 1: 0.26

Iris [SID104180455]
- z-score, replicate 1: 0.36

PK2-R2 [SID104196240]
- z-score, replicate 1: 0.48

Arfrp1 [SID104198209]
- z-score, replicate 1: -0.55

Fatp2 [SID104183763]
- z-score, replicate 1: -2.32
- phenotype, replicate 1: reduced secretion

Fatp2 [SID104183970]
- z-score, replicate 1: 0.18

Fatp2 [SID104184122]
- z-score, replicate 1: 0.13

CG43190 [SID104185108]
- z-score, replicate 1: 0.01

Jon44E [SID104187008]
- z-score, replicate 1: 0.32

Trf [SID104183254]
- z-score, replicate 1: -0.03

RpL22-like [SID104184374]
- z-score, replicate 1: 0.04

Sorted by “z-score, replicate 1” (lowest first): 2 of the entries above.
Fatp2 [SID104183763]
- z-score, replicate 1: -2.32
- phenotype, replicate 1: reduced secretion

Fatp2 [SID104183970]
- z-score, replicate 1: 0.18
